Values from PubChem BioAssay AID1508588 (Peter MacCallum Cancer Centre, 2020).

Purpose: 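Which gene losses make BRAF-mutant melanoma cells more responsive to vemurafenib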 (primary screen)
Cells: human WM266.4 melanoma cells (BRAF V600 mutant)
Reagents: siRNA pool against human genes, 40 nM
Duration: 96 h from transfection to read-out
Conditions: vemurafenib 300 nM (about IC25), added 48 h after transfection, for 48 h; comparison arm got DMSO vehicle only
Measured: 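Cell gain (DAPI nuclei at end minus before drug, mean of two replicates) and medium lactate by absorbance per cell, both as ratio to non-targeting siRNA, also grouped into fold-change classes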
Reading the numbers: cell gain with vemurafenib: higher = more cell gain than with non-targeting siRNA; lactate per cell with vemurafenib: higher = more lactate made per cell
Hit rule: 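Enhancement is called by pairing each knock-down's vehicle-arm and drug-arm fold-change classes for viability or glycolysis; which class combinations qualify is not given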
Meaning of the calls: active = enhances vemurafenib effect; inactive = no enhancement seen
The deposit covers about 18,000 reagents; this is an unselected part. Of all reagents, 790 (4.4%) are marked active. 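Calls rest on a combination of fold-change classes in drug and vehicle arms, not all shown here.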 A number with no mark means an inactive call. No sequences are given here.

gene	cell gain with vemurafenib	lactate per cell with vemurafenib
SDE2 (spliceosome associated SDE2)	0.58	1.27
TMEM11 (transmembrane protein 11)	0.55	0.58
TRIM51BP (tripartite motif-containing 51B, pseudogene)	0.99	0.86
HAAO (3-hydroxyanthranilate 3,4-dioxygenase)	0.57	0.65
BFSP2 (beaded filament structural protein 2)	0.3	0.73
INTS15 (integrator complex subunit 15)	0.49	2.66
IFNLR1 (interferon lambda receptor 1)	0.26	1.02
ACY3 (aminoacylase 3)	0.55	0.94
TMC1 (transmembrane channel like 1)	0.73	2.08
GRXCR1 (glutaredoxin and cysteine rich domain containing 1)	0.82	0.6
LOC284009	0.46	0.63
CADM3 (cell adhesion molecule 3)	1.06	0.53
LIF (LIF interleukin 6 family cytokine)	0.06	1.11
CPA3 (carboxypeptidase A3)	0.8	1.14
SYF2 (SYF2 pre-mRNA splicing factor)	0.26	0.46
PRIMA1 (proline rich membrane anchor 1)	0.75	0.88
DAAM2 (dishevelled associated activator of morphogenesis 2)	0.19	0.5
THNSL1 (threonine synthase like 1)	0.71	0.65
PI4KB (phosphatidylinositol 4-kinase beta)	0.52	0.62
IMPA1 (inositol monophosphatase 1)	0.67	1.23
CEP19 (centrosomal protein 19)	0.61	1.05
NTSR1 (neurotensin receptor 1)	0.55	0.66
RPL10A (ribosomal protein L10a)	-0.03	2.27
SLC25A17	0.28	1.17
BAG4 (BAG cochaperone 4)	0.68	1.27
SNX17 (sorting nexin 17)	0.93	0.7
IRAK3 (interleukin 1 receptor associated kinase 3)	0.04	0.84
IP6K1 (inositol hexakisphosphate kinase 1)	0.88	0.98
PADI2 (peptidyl arginine deiminase 2)	0.62	1.6
SOX13 (SRY-box transcription factor 13)	0.22	2.42
TOMM40L (translocase of outer mitochondrial membrane 40 like)	1.03	0.8
ACMSD (aminocarboxymuconate semialdehyde decarboxylase)	0.41	1.06

Next part, starting with the last 7 of the part before.
gene	cell gain with vemurafenib	lactate per cell with vemurafenib
SNX17 (sorting nexin 17)	0.93	0.7
IRAK3 (interleukin 1 receptor associated kinase 3)	0.04	0.84
IP6K1 (inositol hexakisphosphate kinase 1)	0.88	0.98
PADI2 (peptidyl arginine deiminase 2)	0.62	1.6
SOX13 (SRY-box transcription factor 13)	0.22	2.42
TOMM40L (translocase of outer mitochondrial membrane 40 like)	1.03	0.8
ACMSD (aminocarboxymuconate semialdehyde decarboxylase)	0.41	1.06
THEM6 (thioesterase superfamily member 6)	0.9	0.93
ZNF805 (zinc finger protein 805)	0.68	0.56
OR7A17 (olfactory receptor family 7 subfamily A member 17)	0.75	0.74
EEPD1	0.59	0.59
APLNR (apelin receptor)	0.61	0.88
ADAMTSL2 (ADAMTS like 2)	0.6	1.26
DACT3 (dishevelled binding antagonist of beta catenin 3)	0.56	0.92
ZNF532 (zinc finger protein 532)	0.48	0.85
ACSBG2 (acyl-CoA synthetase bubblegum family member 2)	1.31	0.6
TES (testin LIM domain protein)	0.04	0.22
TIA1 (TIA1 cytotoxic granule associated RNA binding protein)	0.3	1.8
DBI (diazepam binding inhibitor, acyl-CoA binding protein)	0.1	2.04
TNRC18 (trinucleotide repeat containing 18)	0.95	1.12
LAGE3 (L antigen family member 3)	0.71	1.16
NAGLU (N-acetyl-alpha-glucosaminidase)	0.69	0.8
SPSB4 (splA/ryanodine receptor domain and SOCS box containing 4)	0.49	0.44
INSC (INSC spindle orientation adaptor protein)	0.92	0.58
SLC30A3	0.71	1.18
EDEM1 (ER degradation enhancing alpha-mannosidase like protein 1)	1.04	0.66
SGO1 (shugoshin 1)	0.03	1.6
FBXL22 (F-box and leucine rich repeat protein 22)	0.44	1.43
ARF3 (ARF GTPase 3)	0.64	1.5
STRBP (spermatid perinuclear RNA binding protein)	0.59 (active)	0.14
ANXA2 (annexin A2)	0.39	0.64
GPR101 (G protein-coupled receptor 101)	0.07 (active)	0.18
CASS4 (Cas scaffold protein family member 4)	0.35	1.02
B3GALT2 (beta-1,3-galactosyltransferase 2)	0.67	0.62
GNPTAB	0.35	1.58
ZNF708 (zinc finger protein 708)	0.64	1.34
GLP1R (glucagon like peptide 1 receptor)	0.81	1.05
ABHD2 (abhydrolase domain containing 2, acylglycerol lipase)	0.54	0.68
UFSP1 (UFM1 specific peptidase 1)	0.42	1.42
ZBTB20 (zinc finger and BTB domain containing 20)	0.84	1.27
PIWIL2 (piwi like RNA-mediated gene silencing 2)	0.75	1.08
BTD (biotinidase)	0.7	1.12
HSPA6 (heat shock protein family A (Hsp70) member 6)	0.52	0.8
DRGX (dorsal root ganglia homeobox)	0.1	2.28
GRIN3B (glutamate ionotropic receptor NMDA type subunit 3B)	1.61	0.4
KDELR2 (KDEL endoplasmic reticulum protein retention receptor 2)	0.82	0.88
OR8U8 (olfactory receptor family 8 subfamily U member 8)	1.24	0.6
CXorf65 (chromosome X open reading frame 65)	0.87	0.56
DYNC1I1 (dynein cytoplasmic 1 intermediate chain 1)	0.92	0.93
TRIM49B (tripartite motif containing 49B)	0.56	0.64
LMBR1L (limb development membrane protein 1 like)	0.67	0.7
PKD1L2 (polycystin 1 like 2 (gene/pseudogene))	1.11	0.56
IWS1 (interacts with SUPT6H, CTD assembly factor 1)	0.77	0.47
TPP2 (tripeptidyl peptidase 2)	1.03	0.62
GALNT15 (polypeptide N-acetylgalactosaminyltransferase 15)	0.57	0.55
TLL2 (tolloid like 2)	-0.12	0.69
SLC20A1	1.07	0.6
LPAL2 (lipoprotein(a) like 2 (pseudogene))	0.52	1.21
CREG1 (cellular repressor of E1A stimulated genes 1)	0.35	1.25
